From patent US11007849
The exact form of at least one protein or probe is not confirmed. Where cells or extracts were used, other partners may take part. For some of these results: Tags and fusion partners may be left off the protein sequences shown.

Sequences of proteins named here, by UniProt entry; tags and fusion partners are left off.
UniProt A0A9J7G412, entry or part of it: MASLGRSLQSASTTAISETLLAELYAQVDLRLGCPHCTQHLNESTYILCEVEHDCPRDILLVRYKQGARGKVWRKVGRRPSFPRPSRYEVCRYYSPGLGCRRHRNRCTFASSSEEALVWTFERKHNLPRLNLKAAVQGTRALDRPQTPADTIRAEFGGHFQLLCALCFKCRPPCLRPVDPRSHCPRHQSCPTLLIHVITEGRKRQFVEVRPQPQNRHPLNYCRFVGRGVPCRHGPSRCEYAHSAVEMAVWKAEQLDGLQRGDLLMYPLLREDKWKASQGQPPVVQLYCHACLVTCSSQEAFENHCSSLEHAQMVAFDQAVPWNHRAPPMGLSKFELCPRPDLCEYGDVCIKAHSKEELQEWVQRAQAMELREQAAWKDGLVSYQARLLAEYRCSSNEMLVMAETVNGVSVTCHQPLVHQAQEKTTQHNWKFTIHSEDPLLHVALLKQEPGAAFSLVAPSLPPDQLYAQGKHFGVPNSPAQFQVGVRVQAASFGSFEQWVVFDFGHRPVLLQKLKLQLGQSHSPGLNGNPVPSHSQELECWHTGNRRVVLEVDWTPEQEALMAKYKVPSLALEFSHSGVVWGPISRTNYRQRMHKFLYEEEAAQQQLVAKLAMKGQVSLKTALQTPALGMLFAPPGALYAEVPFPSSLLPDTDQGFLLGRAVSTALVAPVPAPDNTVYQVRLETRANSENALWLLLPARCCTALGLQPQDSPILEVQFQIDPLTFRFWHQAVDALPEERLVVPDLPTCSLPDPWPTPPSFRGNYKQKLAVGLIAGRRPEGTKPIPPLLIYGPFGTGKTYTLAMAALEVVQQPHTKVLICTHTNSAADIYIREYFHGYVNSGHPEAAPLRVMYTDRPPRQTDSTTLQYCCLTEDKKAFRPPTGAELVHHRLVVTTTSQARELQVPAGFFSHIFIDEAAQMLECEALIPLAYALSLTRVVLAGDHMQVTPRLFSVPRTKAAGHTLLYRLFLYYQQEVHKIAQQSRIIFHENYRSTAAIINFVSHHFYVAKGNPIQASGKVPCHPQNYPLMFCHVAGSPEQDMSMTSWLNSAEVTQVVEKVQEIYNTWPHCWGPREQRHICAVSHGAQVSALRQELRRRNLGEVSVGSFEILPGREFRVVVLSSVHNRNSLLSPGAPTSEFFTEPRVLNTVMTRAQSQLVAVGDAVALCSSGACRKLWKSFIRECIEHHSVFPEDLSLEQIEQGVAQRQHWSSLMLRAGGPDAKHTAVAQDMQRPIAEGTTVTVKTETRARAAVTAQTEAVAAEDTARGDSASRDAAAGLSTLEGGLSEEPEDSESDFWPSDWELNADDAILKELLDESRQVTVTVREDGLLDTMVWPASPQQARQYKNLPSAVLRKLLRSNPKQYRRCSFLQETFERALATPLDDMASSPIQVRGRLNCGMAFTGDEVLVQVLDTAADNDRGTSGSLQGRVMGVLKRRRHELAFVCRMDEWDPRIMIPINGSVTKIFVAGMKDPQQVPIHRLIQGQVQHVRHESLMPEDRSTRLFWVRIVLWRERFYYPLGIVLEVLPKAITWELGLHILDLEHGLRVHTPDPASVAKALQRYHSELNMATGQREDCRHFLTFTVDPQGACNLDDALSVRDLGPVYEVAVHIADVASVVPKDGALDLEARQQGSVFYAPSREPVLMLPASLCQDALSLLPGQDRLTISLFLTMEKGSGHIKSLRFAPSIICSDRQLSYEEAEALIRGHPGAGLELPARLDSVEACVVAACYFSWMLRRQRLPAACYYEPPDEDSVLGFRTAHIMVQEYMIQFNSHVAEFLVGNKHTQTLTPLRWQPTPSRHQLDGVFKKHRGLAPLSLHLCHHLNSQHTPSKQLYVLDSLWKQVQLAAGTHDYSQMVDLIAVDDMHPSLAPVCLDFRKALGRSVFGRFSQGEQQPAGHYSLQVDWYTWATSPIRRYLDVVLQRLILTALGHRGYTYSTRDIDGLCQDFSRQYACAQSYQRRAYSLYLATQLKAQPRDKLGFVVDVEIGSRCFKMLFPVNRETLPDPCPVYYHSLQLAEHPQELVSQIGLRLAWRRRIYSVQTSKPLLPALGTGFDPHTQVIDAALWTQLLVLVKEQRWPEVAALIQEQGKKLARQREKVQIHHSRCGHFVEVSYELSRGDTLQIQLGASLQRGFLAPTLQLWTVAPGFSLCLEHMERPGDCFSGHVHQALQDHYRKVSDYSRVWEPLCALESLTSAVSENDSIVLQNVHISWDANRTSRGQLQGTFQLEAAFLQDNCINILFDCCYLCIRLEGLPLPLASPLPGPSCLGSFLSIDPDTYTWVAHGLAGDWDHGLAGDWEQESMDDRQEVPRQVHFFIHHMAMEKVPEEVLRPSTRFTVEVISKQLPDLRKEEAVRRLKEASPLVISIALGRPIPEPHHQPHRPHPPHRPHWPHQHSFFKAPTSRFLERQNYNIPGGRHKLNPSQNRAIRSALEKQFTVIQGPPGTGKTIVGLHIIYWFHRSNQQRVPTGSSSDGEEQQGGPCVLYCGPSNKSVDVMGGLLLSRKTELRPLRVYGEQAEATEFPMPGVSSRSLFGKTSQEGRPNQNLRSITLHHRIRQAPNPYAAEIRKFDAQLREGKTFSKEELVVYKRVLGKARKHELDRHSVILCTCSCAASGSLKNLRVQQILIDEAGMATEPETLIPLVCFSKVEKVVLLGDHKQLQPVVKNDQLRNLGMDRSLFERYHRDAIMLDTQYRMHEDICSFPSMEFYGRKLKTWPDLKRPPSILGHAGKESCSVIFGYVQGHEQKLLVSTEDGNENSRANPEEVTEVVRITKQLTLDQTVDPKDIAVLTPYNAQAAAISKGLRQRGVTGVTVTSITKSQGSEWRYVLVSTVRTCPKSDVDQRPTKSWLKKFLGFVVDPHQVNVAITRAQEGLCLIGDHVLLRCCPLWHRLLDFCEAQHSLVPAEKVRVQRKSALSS
UniProt A0A8C2QPD9, entry or part of it: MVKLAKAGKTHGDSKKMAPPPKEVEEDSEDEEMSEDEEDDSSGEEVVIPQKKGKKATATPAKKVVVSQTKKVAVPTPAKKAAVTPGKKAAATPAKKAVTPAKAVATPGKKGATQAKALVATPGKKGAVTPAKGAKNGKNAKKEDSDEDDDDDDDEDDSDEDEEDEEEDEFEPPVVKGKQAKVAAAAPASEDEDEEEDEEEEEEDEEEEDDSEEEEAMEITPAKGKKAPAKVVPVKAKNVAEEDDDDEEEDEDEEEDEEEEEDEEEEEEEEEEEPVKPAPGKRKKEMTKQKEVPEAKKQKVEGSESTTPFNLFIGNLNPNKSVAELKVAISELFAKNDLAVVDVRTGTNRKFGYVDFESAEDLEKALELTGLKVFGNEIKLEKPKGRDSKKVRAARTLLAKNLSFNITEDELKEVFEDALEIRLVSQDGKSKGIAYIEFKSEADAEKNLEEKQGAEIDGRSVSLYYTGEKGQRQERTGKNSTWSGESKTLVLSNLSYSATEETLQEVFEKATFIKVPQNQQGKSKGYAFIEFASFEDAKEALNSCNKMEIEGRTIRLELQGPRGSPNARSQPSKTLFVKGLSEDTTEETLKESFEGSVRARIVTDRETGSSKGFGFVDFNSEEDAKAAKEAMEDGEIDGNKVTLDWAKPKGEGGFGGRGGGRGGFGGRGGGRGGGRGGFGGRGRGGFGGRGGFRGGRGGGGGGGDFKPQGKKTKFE
UniProt A0A3L7ISI1, entry or part of it: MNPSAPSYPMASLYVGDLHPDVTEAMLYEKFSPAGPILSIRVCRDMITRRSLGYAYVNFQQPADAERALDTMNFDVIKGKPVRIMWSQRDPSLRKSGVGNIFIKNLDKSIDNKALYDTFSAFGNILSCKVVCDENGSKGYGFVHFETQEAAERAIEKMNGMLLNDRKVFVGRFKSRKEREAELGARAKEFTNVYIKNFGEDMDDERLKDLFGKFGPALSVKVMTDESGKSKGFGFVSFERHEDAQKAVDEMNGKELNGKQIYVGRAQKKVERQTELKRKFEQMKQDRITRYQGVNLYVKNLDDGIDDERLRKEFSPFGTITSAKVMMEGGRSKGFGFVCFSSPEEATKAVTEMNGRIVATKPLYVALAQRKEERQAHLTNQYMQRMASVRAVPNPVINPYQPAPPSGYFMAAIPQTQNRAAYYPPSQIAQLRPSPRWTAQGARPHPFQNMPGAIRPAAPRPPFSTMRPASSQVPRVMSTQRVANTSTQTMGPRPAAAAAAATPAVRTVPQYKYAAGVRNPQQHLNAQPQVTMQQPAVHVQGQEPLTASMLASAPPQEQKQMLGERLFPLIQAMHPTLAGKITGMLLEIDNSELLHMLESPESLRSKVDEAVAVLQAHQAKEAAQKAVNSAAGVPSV
UniProt G3H8V1, entry or part of it: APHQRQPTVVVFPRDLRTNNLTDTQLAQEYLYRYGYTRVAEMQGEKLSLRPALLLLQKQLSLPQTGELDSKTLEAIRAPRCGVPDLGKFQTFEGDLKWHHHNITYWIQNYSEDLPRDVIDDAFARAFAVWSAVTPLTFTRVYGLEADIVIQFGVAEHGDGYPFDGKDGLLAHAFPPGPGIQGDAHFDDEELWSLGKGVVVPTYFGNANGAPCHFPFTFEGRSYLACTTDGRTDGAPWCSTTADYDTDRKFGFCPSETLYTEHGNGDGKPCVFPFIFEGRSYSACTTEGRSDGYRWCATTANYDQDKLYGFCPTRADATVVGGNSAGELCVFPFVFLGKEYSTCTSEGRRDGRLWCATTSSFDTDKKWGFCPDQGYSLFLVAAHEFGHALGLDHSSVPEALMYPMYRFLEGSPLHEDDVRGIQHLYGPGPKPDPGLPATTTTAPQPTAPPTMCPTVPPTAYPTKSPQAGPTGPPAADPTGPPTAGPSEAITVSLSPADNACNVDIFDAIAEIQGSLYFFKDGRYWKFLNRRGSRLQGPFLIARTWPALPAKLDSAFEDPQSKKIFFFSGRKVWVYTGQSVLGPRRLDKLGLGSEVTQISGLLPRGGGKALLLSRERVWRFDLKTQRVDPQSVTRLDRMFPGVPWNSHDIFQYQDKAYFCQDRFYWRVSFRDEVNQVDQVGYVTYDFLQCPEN

Assays:
Assay in all cases: pull-down
Conditions in all cases: LC-MS/MS of CHO HCP mixture, spectral count >50; PBSMCT with salmon sperm DNA, room temperature; protein in an extract; label: 3' biotin with 18-mer internal spacer; single-stranded DNA
[1] = system: Annexin (Cricetulus griseus (CHO))
[2] = target: T1, High mobility group protein B1 (Cricetulus griseus (CHO)) (UniProt P07156)
T1 sequence (looked up, limits assumed): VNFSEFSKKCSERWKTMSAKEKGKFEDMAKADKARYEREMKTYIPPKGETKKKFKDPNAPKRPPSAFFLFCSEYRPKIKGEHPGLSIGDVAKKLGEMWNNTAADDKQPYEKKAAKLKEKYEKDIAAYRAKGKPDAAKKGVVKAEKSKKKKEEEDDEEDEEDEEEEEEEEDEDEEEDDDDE

[3] = target: Peroxisomal proliferator-activated receptor A-interacting complex 285 kDa protein (Cricetulus griseus (CHO)) (UniProt A0A9J7G412)
[4] = target: Nucleolin (Cricetulus griseus (CHO)) (UniProt A0A8C2QPD9)
[5] = target: T2, Matrix metalloprotease-19 (Cricetulus griseus (CHO)) (UniProt G3HRK9)
T2 sequence (looked up, limits assumed): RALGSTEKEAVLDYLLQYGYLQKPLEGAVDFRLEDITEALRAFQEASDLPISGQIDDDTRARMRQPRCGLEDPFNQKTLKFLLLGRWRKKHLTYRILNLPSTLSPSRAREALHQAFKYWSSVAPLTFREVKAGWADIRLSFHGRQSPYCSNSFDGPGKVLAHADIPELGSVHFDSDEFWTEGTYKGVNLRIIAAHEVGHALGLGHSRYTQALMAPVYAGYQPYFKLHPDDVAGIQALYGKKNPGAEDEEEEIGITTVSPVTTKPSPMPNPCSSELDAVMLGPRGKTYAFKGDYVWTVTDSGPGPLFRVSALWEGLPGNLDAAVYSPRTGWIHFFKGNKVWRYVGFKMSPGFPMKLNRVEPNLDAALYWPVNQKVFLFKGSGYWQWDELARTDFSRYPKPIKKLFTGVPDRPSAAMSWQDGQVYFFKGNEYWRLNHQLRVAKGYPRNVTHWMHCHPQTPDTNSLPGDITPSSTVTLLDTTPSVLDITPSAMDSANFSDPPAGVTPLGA

[6] = target: Basement membrane-specific heparin sulfate proteoglycan core protein (Cricetulus griseus (CHO)) (UniProt A0A9J7FD71)
[7] = target: T3, Nuclease domain containing protein 1 (Cricetulus griseus (CHO)) (UniProt A0A9J7JA06)
T3 sequence (looked up, limits assumed): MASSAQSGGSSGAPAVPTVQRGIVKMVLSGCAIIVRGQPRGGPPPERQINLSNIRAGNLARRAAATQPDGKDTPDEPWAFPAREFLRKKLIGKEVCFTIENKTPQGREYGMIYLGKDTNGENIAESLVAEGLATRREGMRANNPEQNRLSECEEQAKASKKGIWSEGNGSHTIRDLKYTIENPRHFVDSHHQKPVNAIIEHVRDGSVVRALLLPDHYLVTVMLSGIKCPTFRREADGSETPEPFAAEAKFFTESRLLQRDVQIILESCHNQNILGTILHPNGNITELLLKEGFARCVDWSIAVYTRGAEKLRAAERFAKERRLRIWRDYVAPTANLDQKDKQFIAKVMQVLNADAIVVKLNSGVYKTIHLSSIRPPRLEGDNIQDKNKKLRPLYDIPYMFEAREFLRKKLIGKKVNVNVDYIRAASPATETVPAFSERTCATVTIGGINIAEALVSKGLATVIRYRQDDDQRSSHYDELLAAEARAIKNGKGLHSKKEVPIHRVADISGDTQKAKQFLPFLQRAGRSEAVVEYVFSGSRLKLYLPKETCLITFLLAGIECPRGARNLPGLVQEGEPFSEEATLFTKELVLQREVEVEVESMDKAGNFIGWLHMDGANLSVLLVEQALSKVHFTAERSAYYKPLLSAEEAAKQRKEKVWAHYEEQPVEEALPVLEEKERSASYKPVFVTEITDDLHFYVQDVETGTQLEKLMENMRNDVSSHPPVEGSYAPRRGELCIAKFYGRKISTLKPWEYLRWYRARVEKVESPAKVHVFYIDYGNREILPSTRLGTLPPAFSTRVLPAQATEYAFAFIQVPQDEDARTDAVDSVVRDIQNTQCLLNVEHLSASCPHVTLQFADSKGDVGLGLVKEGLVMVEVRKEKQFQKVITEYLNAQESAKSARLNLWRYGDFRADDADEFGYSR

[8] = target: Polyadenylate binding protein 1 (Cricetulus griseus (CHO)) (UniProt A0A3L7ISI1)
[9] = target: Matrix metalloprotease-9 (Cricetulus griseus (CHO)) (UniProt G3H8V1)
[10] = target: T4, Splicing factor 3B subunit (Cricetulus griseus (CHO)) (UniProt G3HAF4)
T4 sequence (looked up, limits assumed): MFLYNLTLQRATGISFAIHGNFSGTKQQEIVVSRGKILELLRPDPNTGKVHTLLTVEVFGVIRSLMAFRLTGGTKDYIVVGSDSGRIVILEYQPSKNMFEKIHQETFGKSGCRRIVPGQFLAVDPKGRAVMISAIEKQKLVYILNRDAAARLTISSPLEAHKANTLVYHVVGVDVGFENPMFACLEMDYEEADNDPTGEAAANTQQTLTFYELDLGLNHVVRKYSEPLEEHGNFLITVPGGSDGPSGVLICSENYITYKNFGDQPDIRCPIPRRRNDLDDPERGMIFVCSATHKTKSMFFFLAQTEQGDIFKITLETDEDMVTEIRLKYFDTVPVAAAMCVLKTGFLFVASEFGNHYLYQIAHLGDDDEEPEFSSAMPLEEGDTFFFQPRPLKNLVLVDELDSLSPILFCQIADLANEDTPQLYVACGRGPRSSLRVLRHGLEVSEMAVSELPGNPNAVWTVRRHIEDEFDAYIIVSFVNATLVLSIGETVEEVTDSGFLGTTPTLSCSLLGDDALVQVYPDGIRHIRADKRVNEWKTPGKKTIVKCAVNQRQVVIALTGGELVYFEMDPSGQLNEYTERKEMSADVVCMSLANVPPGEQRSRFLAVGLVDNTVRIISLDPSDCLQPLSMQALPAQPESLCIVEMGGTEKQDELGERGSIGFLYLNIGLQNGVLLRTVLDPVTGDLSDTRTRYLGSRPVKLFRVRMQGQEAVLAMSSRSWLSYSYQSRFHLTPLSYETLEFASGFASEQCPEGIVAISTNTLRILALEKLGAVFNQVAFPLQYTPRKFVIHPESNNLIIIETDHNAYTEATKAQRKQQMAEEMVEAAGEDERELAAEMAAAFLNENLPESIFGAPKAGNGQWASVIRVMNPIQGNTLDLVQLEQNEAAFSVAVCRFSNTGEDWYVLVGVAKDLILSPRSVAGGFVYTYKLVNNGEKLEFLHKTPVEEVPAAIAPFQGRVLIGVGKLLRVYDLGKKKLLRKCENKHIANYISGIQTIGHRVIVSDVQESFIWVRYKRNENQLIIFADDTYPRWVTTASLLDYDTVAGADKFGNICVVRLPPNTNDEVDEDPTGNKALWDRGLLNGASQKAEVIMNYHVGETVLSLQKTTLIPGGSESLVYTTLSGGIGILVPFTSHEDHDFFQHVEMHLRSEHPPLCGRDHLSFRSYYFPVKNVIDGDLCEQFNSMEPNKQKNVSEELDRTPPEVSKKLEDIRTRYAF

Measured: binding result

CCGGACGATACAATCCATCTGTTACTGTGGATTCGTTAAGCTTAGTCGGT [R5-31]
binds: [1] | [2]

GTTCATTCCGCCTTCTTTGGTCTAGGTCCGGACCAATTGTTATTTCGTTC [R5-150]
binds: [3] | [4] | [5] | [6] | [7] | [8] | [9] | [10]
